In PMC8526854:
No constants are given. Whether binding was seen depends on the method and setting. Binding calls can cover weak binding; strength is not graded here.

Biological target: Avr1d (Phytophthora sojae)
Assay: two-hybrid

| Binder | binding |
| --- | --- |
| AtPUB24 (protein, UniProt Q9SF15 1-456) MDQEEEEIEIPNYFICPISLEIMKDPVTTVSGITYDRQNIVKWLEKVPSCPVTKQPLPLDSDLTPNHMLRRLIQHWCVENETRGVVRISTPRVPPGKLNVVEEIKNLKKFGQEALGREETLQKLEVLAMDGNNRRLMCECGVHKSLILFVVKCTSEDEDGRRRIKGLDESLRLLHLIGIPSNDAKTILMENDRVMESLTWVLHQEDFLSKAYTIVLLRNLTEYTSSHIVERLNPEIFKGIIGFLKDVVNSVNRTSPTVRETVQSSSRPSLGKTEPSKLDHSLVIKQAVTAALMILLETSSWSRNRSLLVDLGAVSELIELEISYTGEKRITELMLGVLSRLCCCANGRAEILAHRGGIAVVTKRLLRVSPAADDRAISILTTVSKFSPENMVVEEMVNVGTVEKLCSVLGMDCGLNLKEKAKEILKDHFDEWKKFPCIDITLLTKLLSISPKGPKI | binds |
| AtPUB23 (protein, UniProt Q84TG3 1-411) MSGGIMDEEIEIPPFFLCPISLEIMKDPVIVSTGITYDRDSIEKWLFAGKKNSCPVTKQDITDADLTPNHTLRRLIQSWCTLNASYGVERIPTPRPPICKSEIEKLIRDSASSHENQVKCLKRLRQIVSENATNKRCLEAAGVPEFLANIVSNDSENGSLTDEALNLLYHLETSETVLKNLLNNKKDNNIVKSLTKIMQRGMYESRVYATLLLKNILEVADPMQSMTLKPEVFTEVVQILDDRISQKATKAAMHILVNICPWGRNRHKAVEAGVISVIIELLMDESFTSERRGPEMAMVVLDLLCQCAEGRAEFLNHGAAIAVVCKKILRVSQTASDRAVRVLLSVGRFCATPALLHEMLQLGVVAKLCLVLQVSCGGKTKEKAKELLKLHARVWKDSPCLPKNMILAYPC | binds |
